Several values for one entry are separate records, joined by “and”; a condition that tells them apart may be missing. Equal values may be shown once. The shares of active, inactive and inconclusive entries below differ from those in the screen. Potencies of inconclusive entries are doubtful fits and often do not repeat. Activity calls are given as the source filed them. Calls come from the whole dose curve; as a rule, active = well fitted inhibition curve with a large enough effect; inconclusive = small, poorly fitted or top-dose-only effect; inactive = no such curve, though single readings can be large or run the other way.
assay: qHTS for Inhibitos of Bacillus subtilis Sfp phosphopantetheinyl transferase (PPTase): Chemistry Optimization Followup in B. Subtilis 168; conditions: B. subtilis 168 growth, BacTiter-Glo luminescence, 5 h; series mostly up to 114 µM; activity change, negative = inhibition: at the top concentration
Text: Phosphopantetheinyl transfer is a process essential to cellular viability and maintenance. Cell-permeable and stable compounds acting as PPTase inhibitors are anticipated to be antimicrobial agents in organisms with complimenting genotypes. […] This experiment evaluated a series of test compounds for antimicrobial activity with B. subtilis 168 (genotype: acpS+ and sfp-), a strain that contains a frameshift mutation in the sfp locus and thus requires a functional AcpS gene product for viability. [Mootz HD, 2001] This strain is expected to be sensitized to cell-permeable AcpS inhibitors, and insensitive to Sfp inhibitors. NIH Chemical Genomics Center [NCGC] NIH Molecular Libraries Probe Centers Network [MLPCN] MLPCN Grant: MH083266-01 Assay Submitter (PI): Michael Burkart, University of California, San Diego
Innoculum preparation. Bacillus subtilis 168 is maintained on lysogeny broth (LB) solidified by the addition of 1.5% w/v agar. Single colonies were used to LB medium (2 mL) and shaken overnight at 30 masculineC. In the morning, this culture (100 ul) was used to seed a fresh LB medium (10 mL) and was shaken at 30 masculineC until the culture OD600 reached 0.5. This culture was diluted 1:100 in fresh LB medium to provide the inoculum below. Bacterial susceptibility. LB medium (2 uL) is dispensed into wells of a sterile white 1536-well plate. Test compounds (23 nL) prepared as serial dilutions in DMSO are added to the plate by pintool transfer. Innoculum (2 uL) is added, the plates are covered with a vented Kalypsys assay lid and incubated at 30 masculineC. After 5 h, Bac-Titer Glo (4 uL; Promega Corp, Madison, WI) is added to the plates. They are incubated 10 minutes at room temperature and then the luminescence detected in a ViewLux multimodal plate reader.

Structure (SMILES) | activity change, negative = inhibition | Potency
Cc1cc(C)nc(NC(=S)N2CCN(c3ccc(Cl)nn3)CC2)c1 | inactive: -33.3% | –
Cc1cc(C)nc(Nc2nnc(N3CCN(c4cccc(C(F)(F)F)c4)CC3)s2)c1 | inactive: -13.3% | –
CN(C)c1ccc2nc(NC(=S)N3CCN(c4cccc(C(F)(F)F)c4)CC3)sc2c1 | – | active: 5.91 µM
CCN1CCN(C(=S)c2ccc(O)cc2)CC1 | – | inconclusive: 74.4 µM [inhibitor, partial curve, poor fit]
Cc1cc(C)nc(NC(=S)N2CCN(Cc3c(F)cccc3Cl)CC2)c1 | inactive: -23.3% | –
Cc1cc(C)nc(NC(=S)N2CCN(c3cccc(S(C)(=O)=O)c3)CC2)c1 | – | inconclusive: 52.7 µM [inhibitor, partial curve]
Cc1cc(C)nc(NC(=S)N2CCN(c3ccc4cn(C)nc4c3)CC2)c1 | inactive: -14.6% | –
Cc1cc(C)nc(NC(=S)N2CCN(c3noc4ccccc34)CC2)c1 | – | inconclusive: 23.5 µM [inhibitor, full curve, poor fit]
Cc1cc(C)nc(NC(=S)N2CCN(c3nncs3)CC2)c1 | – | inconclusive: 59.1 µM [inhibitor, partial curve]
Cc1cc(C)nc(NC(=S)N2CCN(c3ccc(F)c(F)c3F)CC2)c1 | – | inconclusive: 29.6 µM [inhibitor, partial curve]
Cc1cc(C)nc(NC(=S)N2CCN(c3ccc(C(=O)O)cc3)CC2)c1 | – | inconclusive: 26.4 µM [inhibitor, partial curve]
COc1ccnc(NC(=S)N2CCN(c3cccc(Cl)c3Cl)CC2)c1 | – | active: 9.37 µM
Cc1cc(C)nc(NC(=S)N2CCN(c3nc4ccccc4s3)CC2)c1 | – | inconclusive: 59.1 µM [inhibitor, partial curve]
Cc1cc(C)nc(NC(=S)N2CCN(c3ccccn3)CC2)c1 | – | inconclusive: 29.6 µM [inhibitor, full curve, poor fit] and inconclusive: 6.63 µM [inhibitor, full curve, poor fit]
Cc1cc(C)nc(NC(=S)N2CCN(c3ncccc3Cl)CC2)c1 | – | inconclusive: 59.1 µM [inhibitor, partial curve, poor fit]
Cc1cc(C)nc(NC(=S)N2CCN(c3cnc4nccn4c3)CC2)c1 | – | inconclusive: 0.0026 µM [inhibitor, full curve, poor fit]
Cc1cc(C)nc(NC(=S)N2CCN(c3cc(F)cc(F)c3)CC2)c1 | – | active: 37.3 µM
CC(=O)N1CCN(C(=S)Nc2cc(C)ccn2)CC1 | – | inconclusive: 59.1 µM [inhibitor, partial curve]
Cc1cc(C)nc(NC(=S)N2CCN(c3cc(Cl)c(Cl)c(Cl)c3)CC2)c1 | – | inconclusive: 1.67 µM [inhibitor, full curve]
Cc1cc(C)nc(NC(=S)N2CCN(c3cc(C#N)cc(C#N)c3)CC2)c1 | – | inconclusive: 5.27 µM [inhibitor, partial curve]

Whole records, looked up by structure:
Cc1cc(C)nc(NC(=S)N2CCN(c3cnc4nccn4c3)CC2)c1 is entered as Potency: inconclusive: 0.0026 µM [inhibitor, full curve, poor fit]
Cc1cc(C)nc(NC(=S)N2CCN(c3ccc(Cl)nn3)CC2)c1 is entered as activity change, negative = inhibition: inactive: -33.3%

Continuation.

Structure (SMILES) | activity change, negative = inhibition | Potency
Cc1cc(C)nc(NC(=S)N2CCN(c3cc(Br)cc(C(F)(F)F)c3)CC2)c1 | – | inconclusive: 5.91 µM [inhibitor, full curve]
COc1cccc(NC(=S)N2CCN(c3ccc(C(F)(F)F)cc3[N+](=O)[O-])CC2)n1 | – | inconclusive: 26.4 µM [inhibitor, full curve]
Cc1ccnc(NC(=S)N2CCNCC2)c1 | – | inconclusive: 26.4 µM [inhibitor, single point]
Cc1cc(C)nc(/N=C(\NC#N)N2CCN(c3cccc(C(F)(F)F)c3)CC2)c1 | – | active: 46.9 µM
COc1cccc(NC(=S)N2CCN(c3ccc(Cl)c(Cl)c3)CC2)n1 | inactive: -26.2% | –
COc1cccc(NC(=S)N2CCN(c3ccc4ccccc4n3)CC2)n1 | – | inconclusive: 66.3 µM [inhibitor, partial curve, poor fit]
Cc1ccnc(NC(=S)N[C@H]2CCN(c3cccc(C(F)(F)F)c3)C2)c1 | – | active: 52.7 µM
FC(F)(F)c1cccc(N2CCN(C(=S)Nc3ncnc4ccccc34)CC2)c1 | – | active: 6.63 µM
FC(F)(F)c1cccc(N2CCN(C(=S)Nc3nccc4ccccc34)CC2)c1 | – | inconclusive: 4.18 µM [inhibitor, full curve] and active: 2.35 µM
COc1ccnc(NC(=S)N2CCN(c3cccc(C(F)(F)F)n3)CC2)c1 | – | inconclusive: 46.9 µM [inhibitor, partial curve]
Cc1ccnc(NC(=S)N2CCc3ccccc3C2)c1 | – | active: 59.1 µM
Cc1ccnc(C(=S)N2CCN(c3cccc(C(F)(F)F)c3)CC2)c1 | – | inconclusive: 83.5 µM [inhibitor, single point]
COC(=O)c1ccnc(NC(=S)N2CCN(c3cccc(C(F)(F)F)c3)CC2)c1 | – | active: 41.8 µM
Cc1cc(C)nc(NC(=S)N2CCN(Cc3cccc(C(F)(F)F)c3)CC2)c1 | – | inconclusive: 29.6 µM [inhibitor, partial curve]
Cc1cc(C)nc(NC(=S)N2CCN(c3nccs3)CC2)c1 | – | inconclusive: 74.4 µM [inhibitor, partial curve, poor fit] and inconclusive: 33.2 µM [inhibitor, full curve, poor fit]
COc1cccc(NC(=S)N2CCN(c3ncc(C(F)(F)F)cc3Cl)CC2)n1 | – | inconclusive: 0.0007 µM [inhibitor]
Cc1cc(C)nc(NC(=S)N2CCN(c3ccncc3)CC2)c1 | inactive: -18.6% | –
Cc1cc(C)nc(NC(=S)N2CCN(c3nccc4ccccc34)CC2)c1 | – | inconclusive: 52.7 µM [inhibitor, partial curve]
Cc1cc(NC(=S)N2CCN(c3cccc(C(F)(F)F)c3)CC2)nc2ccccc12 | – | inconclusive: 26.4 µM [inhibitor, partial curve]
Cc1cc(C)nc(NC(=S)N2CCN(c3cccc(C#N)c3)CC2)c1 | – | inconclusive: 66.3 µM [inhibitor, partial curve]

From PubChem BioAssay AID540352 (National Center for Advancing Translational Sciences (NCATS), 2011)
